Test results published in PMC10447549.
Where two headings read alike, the source gives them in different places. No constants are given. Whether binding was seen depends on the method and setting. In cells and extracts the contact can be indirect. Some binding calls cover weakened binding; strength is not graded here.

Chains of the proteins cited; added tags and fusions are not shown. Lines headed by an entry give the natural chain unless they say otherwise; changes in a name come on top. Residues count along the entry.
UniProt Q16254: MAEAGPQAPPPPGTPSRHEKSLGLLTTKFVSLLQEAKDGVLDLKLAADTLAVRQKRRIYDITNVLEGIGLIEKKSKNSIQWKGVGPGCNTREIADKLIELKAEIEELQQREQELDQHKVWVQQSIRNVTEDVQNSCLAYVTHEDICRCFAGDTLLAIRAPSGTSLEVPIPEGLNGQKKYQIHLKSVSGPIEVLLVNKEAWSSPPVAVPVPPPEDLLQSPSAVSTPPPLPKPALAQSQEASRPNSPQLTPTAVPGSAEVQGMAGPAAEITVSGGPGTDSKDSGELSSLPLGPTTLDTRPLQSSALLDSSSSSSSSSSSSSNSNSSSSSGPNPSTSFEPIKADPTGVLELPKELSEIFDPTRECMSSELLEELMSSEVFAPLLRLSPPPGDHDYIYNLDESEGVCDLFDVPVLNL
GST-E2f4 N-terminal fragment (amino acids 1-105) (human (ORF amplified from HCT116 mRNA)): residues 1-105 of Q16254
UniProt Q8R0K9: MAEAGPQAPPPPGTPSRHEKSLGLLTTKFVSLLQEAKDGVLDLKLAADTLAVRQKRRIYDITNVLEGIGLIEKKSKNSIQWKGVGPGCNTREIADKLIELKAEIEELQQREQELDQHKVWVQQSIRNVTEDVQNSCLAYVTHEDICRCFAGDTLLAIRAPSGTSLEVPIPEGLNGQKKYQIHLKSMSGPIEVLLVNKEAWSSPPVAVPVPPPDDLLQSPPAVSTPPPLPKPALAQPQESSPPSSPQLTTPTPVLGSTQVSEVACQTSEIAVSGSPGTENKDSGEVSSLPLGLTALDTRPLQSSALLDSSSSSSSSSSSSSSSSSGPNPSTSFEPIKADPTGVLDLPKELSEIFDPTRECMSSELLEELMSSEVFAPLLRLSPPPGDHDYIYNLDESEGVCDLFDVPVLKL
UniProt P46063: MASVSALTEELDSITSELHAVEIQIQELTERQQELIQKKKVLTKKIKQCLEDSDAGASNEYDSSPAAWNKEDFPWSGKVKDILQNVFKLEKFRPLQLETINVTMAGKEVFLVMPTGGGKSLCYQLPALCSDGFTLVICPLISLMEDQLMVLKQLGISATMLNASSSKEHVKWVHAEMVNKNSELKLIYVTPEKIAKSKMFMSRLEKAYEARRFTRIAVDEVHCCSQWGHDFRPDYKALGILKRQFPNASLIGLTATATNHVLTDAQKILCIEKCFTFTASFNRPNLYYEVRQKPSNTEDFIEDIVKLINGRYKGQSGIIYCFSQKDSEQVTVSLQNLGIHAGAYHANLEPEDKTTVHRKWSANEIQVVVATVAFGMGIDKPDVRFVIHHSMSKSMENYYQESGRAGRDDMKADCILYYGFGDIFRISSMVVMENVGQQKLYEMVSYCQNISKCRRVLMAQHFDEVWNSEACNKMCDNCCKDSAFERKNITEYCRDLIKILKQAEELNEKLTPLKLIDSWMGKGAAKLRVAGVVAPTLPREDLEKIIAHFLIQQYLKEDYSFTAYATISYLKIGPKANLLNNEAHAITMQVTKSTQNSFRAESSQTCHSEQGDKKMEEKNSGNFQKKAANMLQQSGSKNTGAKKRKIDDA
UniProt P17918: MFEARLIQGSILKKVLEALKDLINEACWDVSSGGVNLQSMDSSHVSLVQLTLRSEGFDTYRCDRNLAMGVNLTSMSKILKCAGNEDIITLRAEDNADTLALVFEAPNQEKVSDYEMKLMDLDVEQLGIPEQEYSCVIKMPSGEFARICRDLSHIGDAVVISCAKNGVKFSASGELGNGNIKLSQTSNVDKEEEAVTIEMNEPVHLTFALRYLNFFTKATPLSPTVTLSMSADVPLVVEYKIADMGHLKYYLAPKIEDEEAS

Experiments:
[1] = target: GST-E2f4 N-terminal fragment (amino acids 1-105) (human (ORF amplified from HCT116 mRNA)) (UniProt Q16254); experiment: pull-down; GST-E2f4 fusion proteins on glutathione agarose beads, washed with TNT-300 buffer, incubated 4 h with U2OS or shTrim33 U2OS whole cell lysates; immunoblot; only the target purified
[2] = target: T1, Trim33 (endogenous, U2OS) (human (endogenous in U2OS)) (UniProt Q9UPN9); experiment: co-IP; Trim33 immunoprecipitates from lysates of U2OS cells, endogenous proteins
T1 sequence: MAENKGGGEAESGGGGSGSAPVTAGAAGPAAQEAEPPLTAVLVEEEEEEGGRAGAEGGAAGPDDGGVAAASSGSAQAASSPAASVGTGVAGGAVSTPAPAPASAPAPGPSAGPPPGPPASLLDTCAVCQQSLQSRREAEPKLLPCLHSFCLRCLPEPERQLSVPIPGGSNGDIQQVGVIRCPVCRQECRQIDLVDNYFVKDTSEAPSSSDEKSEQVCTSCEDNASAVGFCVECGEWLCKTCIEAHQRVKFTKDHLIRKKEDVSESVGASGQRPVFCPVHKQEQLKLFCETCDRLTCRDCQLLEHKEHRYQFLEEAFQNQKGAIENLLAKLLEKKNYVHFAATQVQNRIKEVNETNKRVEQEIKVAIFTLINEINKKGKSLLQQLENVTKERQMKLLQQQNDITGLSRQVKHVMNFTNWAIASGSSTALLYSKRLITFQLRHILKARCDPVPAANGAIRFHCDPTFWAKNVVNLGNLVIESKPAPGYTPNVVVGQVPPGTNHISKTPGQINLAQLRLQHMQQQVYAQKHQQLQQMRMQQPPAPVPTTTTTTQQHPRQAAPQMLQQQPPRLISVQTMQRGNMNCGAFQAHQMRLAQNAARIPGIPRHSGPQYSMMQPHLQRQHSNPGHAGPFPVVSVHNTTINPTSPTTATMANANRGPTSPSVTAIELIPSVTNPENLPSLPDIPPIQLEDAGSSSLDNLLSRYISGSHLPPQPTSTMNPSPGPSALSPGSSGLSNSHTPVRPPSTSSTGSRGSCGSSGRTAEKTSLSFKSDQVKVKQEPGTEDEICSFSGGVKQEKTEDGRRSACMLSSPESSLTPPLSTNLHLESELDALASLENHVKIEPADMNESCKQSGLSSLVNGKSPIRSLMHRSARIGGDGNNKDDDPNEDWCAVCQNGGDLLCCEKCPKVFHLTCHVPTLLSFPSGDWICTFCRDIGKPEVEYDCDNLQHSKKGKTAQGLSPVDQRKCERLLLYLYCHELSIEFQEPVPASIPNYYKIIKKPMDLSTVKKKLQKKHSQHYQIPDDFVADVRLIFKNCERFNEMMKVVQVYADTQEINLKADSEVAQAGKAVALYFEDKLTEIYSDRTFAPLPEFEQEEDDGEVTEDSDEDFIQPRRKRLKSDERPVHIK

[3] = target: T2, Recql DNA helicase (endogenous, mouse) (mouse (endogenous in p19/Nras)) (UniProt Q9Z129); experiment: co-IP; IP of HA-tagged or endogenous Recql from formaldehyde-crosslinked (0.2%) p19/Nras Trim33-WT and Trim33-KO cells, sonicated in TNT buffer with 300 mM NaCl and 0.1% SDS; with control or E2f4 siRNA, E2f4 variants, untreated or HU 10 or 120 min
T2 sequence: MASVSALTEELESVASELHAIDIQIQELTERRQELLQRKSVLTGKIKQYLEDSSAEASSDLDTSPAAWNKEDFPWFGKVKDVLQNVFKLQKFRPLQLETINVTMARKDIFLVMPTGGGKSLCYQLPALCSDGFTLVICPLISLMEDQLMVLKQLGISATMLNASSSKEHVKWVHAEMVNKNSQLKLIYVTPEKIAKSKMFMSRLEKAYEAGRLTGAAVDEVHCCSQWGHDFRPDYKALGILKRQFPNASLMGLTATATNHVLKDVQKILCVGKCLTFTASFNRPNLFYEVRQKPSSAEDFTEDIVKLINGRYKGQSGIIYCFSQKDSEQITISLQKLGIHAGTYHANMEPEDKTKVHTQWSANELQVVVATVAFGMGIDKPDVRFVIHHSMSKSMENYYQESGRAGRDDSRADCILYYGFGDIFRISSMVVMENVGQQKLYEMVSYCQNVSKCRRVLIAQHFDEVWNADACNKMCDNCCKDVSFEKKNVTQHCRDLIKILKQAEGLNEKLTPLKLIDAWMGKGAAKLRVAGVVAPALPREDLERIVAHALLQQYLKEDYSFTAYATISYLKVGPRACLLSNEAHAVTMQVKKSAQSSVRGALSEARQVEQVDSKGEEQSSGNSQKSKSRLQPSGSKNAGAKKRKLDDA

[4] = target: transcription factor E2f4 (endogenous, mouse) (mouse (endogenous in p19/Nras)) (UniProt Q8R0K9); experiment: proximity ligation; Duolink PLA on formaldehyde-fixed p19/Nras Trim33-WT and Trim33-KO cells with antibody pairs as indicated (Trim33 and E2f4; Recql and HA-tag; Recql and RNAPII or Mcm2); untreated or HU-treated
[5] = target: transcription factor E2f4 (endogenous, mouse) (mouse (endogenous in p19/Nras)) (UniProt Q8R0K9); experiment: co-IP; IP of endogenous E2f4 with E2f4 antibodies from TNT-150 lysates (25 mM Tris-HCl pH 8.0, 1% Triton X-100, 150 mM NaCl) of p19/Nras Trim33-WT or Trim33-KO cells; cells treated with MG132 or DMSO, or HU (2 h); lysates with or without benzonase; protein G agarose, 4 °C
[6] = target: GST-E2f4 N-terminal fragment (amino acids 1-105) (human (ORF amplified from HCT116 mRNA)) (UniProt Q16254); experiment: pull-down; GST-E2f4 fusion proteins on glutathione agarose beads, washed with TNT-300 buffer, incubated 4 h with U2OS or shTrim33 U2OS whole cell lysates; immunoblot; only the target purified; remark: listed apart in the source
[7] = target: HA-tagged E2f4 (stably expressed in p19/Nras cells) (human (ORF amplified from HCT116 mRNA)) (UniProt Q16254); experiment: proximity ligation; Duolink PLA on formaldehyde-fixed p19/Nras Trim33-WT and Trim33-KO cells with antibody pairs as indicated (Trim33 and E2f4; Recql and HA-tag; Recql and RNAPII or Mcm2); untreated or HU-treated
[8] = target: HA-tagged E2f4 (stably expressed in p19/Nras cells) (human (ORF amplified from HCT116 mRNA)) (UniProt Q16254); experiment: co-IP; IP experiment with E2f4 variants and Recql (Supplementary Fig. 3e); cells and bait not told

**Q.** Which binding [1] does the source give for “Recql (endogenous, U2OS) (from UniProt P46063 1-649)” here?
**A.** Its binding is “binds weakly”.

**Q.** Which binding [2] does the source give for “E2f4 (endogenous, U2OS) (from UniProt Q16254 1-413)” here?
**A.** The binding was “binds”.

**Q.** For “PCNA (endogenous, mouse) (from UniProt P17918 1-261)”, which binding [3] is on record?
**A.** The binding was “binds”.

B1: Trim33 ubiquitin ligase (endogenous, mouse) (protein, UniProt Q99PP7 1-1142)
chain: MAENKGGGEAESGGGGSGSAPVTAGAAGPTAQEAEPPLAAVLVEEEEEEGGRAGAEGGAAGPDDGGVAAASSSSAPAASVPAASVGSAVPGGAASTPAPAAAPAPAPAPAPAPAPAPAPAPAPGSSSGPPLGPPASLLDTCAVCQQSLQSRREAEPKLLPCLHSFCLRCLPEPERQLSVPIPGGSNGDVQQVGVIRCPVCRQECRQIDLVDNYFVKDTSEAPSSSDEKSEQVCTSCEDNASAVGFCVECGEWLCKTCIEAHQRVKFTKDHLIRKKEDVSESVGTSGQRPVFCPVHKQEQLKLFCETCDRLTCRDCQLLEHKEHRYQFLEEAFQNQKGAIENLLAKLLEKKNYVHFAATQVQNRIKEVNETNKRVEQEIKVAIFTLINEINKKGKSLLQQLENVTKERQMKLLQQQNDITGLSRQVKHVMNFTNWAIASGSSTALLYSKRLITFQLRHILKARCDPVPAANGAIRFHCDPTFWAKNVVNLGNLVIESKPAPGYTPNVVVGQVPPGTNHISKTPGQINLAQLRLQHMQQQVYAQKHQQLQQMRLQQPPAPIPTTTATTQQHPRQAAPQMLQQQPPRLISVQTMQRGNMNCGAFQAHQMRLAQNAARIPGIPRHSAPQYSMMQPHLQRQHSNPGHAGPFPVVSAHNPINPTSPTTATMANANRGPTSPSVTAIELIPSVTNPENLPSLPDIPPIQLEDAGSSSLDNLLSRYISGSHLPPQPTSTMNPSPGPSALSPGSSGLSNSHTPVRPPSTSSTGSRGSCGSSGRTAEKSAHSFKSDQVKVKQEPGTEEEICSFSGAVKQEKTEDGRRSACMLSSPESSLTPPLSTNLHLESELDTLTGLENHVKTEPTDISESCKQSGLSNLVNGKSPIRNLMHRSARIGGDGNSKDDDPNEDWCAVCQNGGDLLCCEKCPKVFHLTCHVPTLLSFPSGDWICTFCRDIGKPEVEYDCDNMQHSKKGKTAQGLSPVDQRKCERLLLYLYCHELSIEFQEPVPVSIPNYYKIIKKPMDLSTVKKKLQKKHSQHYQIPDDFVADVRLIFKNCERFNEMMKVVQVYADTQEINLKGDSEVAKAGKAVALYFEDKLSEIYSDRTFTPLPEFEQDEDDGEVTEDSDEDFIQPRRKRLKSDERPVHIK
**Q.** With B1 as the molecule, how does the binding [4] read?
**A.** The binding was “binds”.

**Q.** And the binding [5]?
**A.** The binding was “binds”.

B2: Trim33 (endogenous, U2OS) (protein, UniProt Q9UPN9 1-1127)
chain: T1 sequence
**Q.** B2 was tested. Which binding [6] did it give?
**A.** Its binding is “binds”.

B3: Recql DNA helicase (endogenous, mouse) (protein, UniProt Q9Z129 1-648)
chain: T2 sequence
**Q.** How did the binding [7] turn out when B3 was run?
**A.** The binding was “binds”.

**Q.** And the binding [5]?
**A.** Its binding is “binds”.

**Q.** What about the binding [8] of the same molecule?
**A.** The binding was “binds”.
